# Literature values in US20200377477A1, “DEGRADERS OF EGFR AND METHODS OF USE THEREOF” (DANA-FARBER CANCER INSTITUTE, INC., priority 2018, published 2020).
# At least one compound was matched to its structure with a doubt left.
# System: NSCLC resistant to gefitinib or erlotinib
# Settings: patients with NSCLC resistant to gefitinib or erlotinib; cited from earlier work
structure (smiles),measurement,value
CN(C)C/C=C/C(=O)Nc1cc2c(Nc3ccc(F)c(Cl)c3)ncnc2cc1O[C@H]1CCOC1 [Afatinib],RR,< 10%
